The source of these data is article doi:10.1101/2025.02.28.640611.

For data set [1], the system named is ComX (competence alternative sigma factor). The data set can be described thus: pull-down. Particulars: protein in an extract.
The subject of data set [2] is Sig42 (primary sigma factor). As to the kind of experiment: EMSA. Particulars: pull-down fraction of heat-treated cells; protein in an extract.
Data set [3] concerns Sig42 (primary sigma factor). As to the kind of experiment: pull-down. Particulars: protein in an extract.

The exact form of at least one protein or probe is not confirmed. At least one result comes from cells or an extract, where the contact may be indirect. For some assays here: A negative result means that nothing was seen under these conditions.

Turning to “GGGTTAAGCAGCAATATTTACCAGACAAACTCAAAGGAGCTAACTATTTTACTGCCAATGAAACAGGTAAATACGAACGGGCACTGGGGGCTAACAAAGACAAGATTGATAAACTTTCATAATGATGCCCTTTATAAAAAATGGATTTTTAACTTGAATTTTTTTAACATTATGGTATCATATTTAAAGAAGAATTGCTGT (double strand) [Pr-6S RNA promoter, biotinylated]”, in data set [1] (lysates of heat- or NaF-treated cells), the binding result is given as “binds”.

Turning to “GTTAGTAAAAAGGCACAATTTCTGTGTCTTTTTACCGTTTAGGACAAAATTGCTACCATTTGGGATTTTTGACTCCGTTAGAGGATATTTTCTGTTATACTAAGAATATCTTTATGTTATTAATAAGGAAAGCCTA (double strand) [Pr-cipI promoter, Cy5]”, in data set [2], the binding result is “binds”.

For “GTTAGTAAAAAGGCACAATTTCTGTGTCTTTTTACCGTTTAGGACAAAATTGCTACCATTTGGGATTTTTGACTCCGTTAGAGGATATTTTCTGTTATACTAAGAATATCTTTATGTTATTAATAAGGAAAGCCTA (double strand) [Pr-cipI promoter, biotinylated]”, the binding result is “no binding” in data set [3] (lysate of +/+ population), “binds” in data set [3] (lysate of +/- population) and “binds” in data set [3] (lysate of -/- population).

Take “TTTATATCTCCTTTTTTTGATTATAATTAGTATACTATTTTTTATGAAAAAATCATGGATTTTCTTGAAAAAGTAATATTTTCCTTAGGACACATAATGTAAAATTAGCTGGTAATGATAGTTTCAGAACATCAAAAATGACCGTTTAGGACAAAATAGCTACCATTTAGGATATTTTGCTCCATTTTGAAAATAAATTGTTATACTAGAGATGTCGGTTGCGCAGCCAGACAAAAAACTAAAAATGGGGAAGGGGTATTTATCAT (double strand) [Pr-cipB promoter, biotinylated]”: the binding result in data set [1] (lysate of +/+ population) is listed as “binds”; in data set [1] (lysate of +/- population) it was “binds”; in data set [1] (lysate of -/- population), “no binding”.
